These are yes or no findings as the source states them, for the method shown. In cells and extracts the contact can be indirect. Some entries that bind do so weakly or less than the wild type.
Biological target: T1, mCherry-USP37^WT (human) (UniProt Q86T82)
T1 sequence: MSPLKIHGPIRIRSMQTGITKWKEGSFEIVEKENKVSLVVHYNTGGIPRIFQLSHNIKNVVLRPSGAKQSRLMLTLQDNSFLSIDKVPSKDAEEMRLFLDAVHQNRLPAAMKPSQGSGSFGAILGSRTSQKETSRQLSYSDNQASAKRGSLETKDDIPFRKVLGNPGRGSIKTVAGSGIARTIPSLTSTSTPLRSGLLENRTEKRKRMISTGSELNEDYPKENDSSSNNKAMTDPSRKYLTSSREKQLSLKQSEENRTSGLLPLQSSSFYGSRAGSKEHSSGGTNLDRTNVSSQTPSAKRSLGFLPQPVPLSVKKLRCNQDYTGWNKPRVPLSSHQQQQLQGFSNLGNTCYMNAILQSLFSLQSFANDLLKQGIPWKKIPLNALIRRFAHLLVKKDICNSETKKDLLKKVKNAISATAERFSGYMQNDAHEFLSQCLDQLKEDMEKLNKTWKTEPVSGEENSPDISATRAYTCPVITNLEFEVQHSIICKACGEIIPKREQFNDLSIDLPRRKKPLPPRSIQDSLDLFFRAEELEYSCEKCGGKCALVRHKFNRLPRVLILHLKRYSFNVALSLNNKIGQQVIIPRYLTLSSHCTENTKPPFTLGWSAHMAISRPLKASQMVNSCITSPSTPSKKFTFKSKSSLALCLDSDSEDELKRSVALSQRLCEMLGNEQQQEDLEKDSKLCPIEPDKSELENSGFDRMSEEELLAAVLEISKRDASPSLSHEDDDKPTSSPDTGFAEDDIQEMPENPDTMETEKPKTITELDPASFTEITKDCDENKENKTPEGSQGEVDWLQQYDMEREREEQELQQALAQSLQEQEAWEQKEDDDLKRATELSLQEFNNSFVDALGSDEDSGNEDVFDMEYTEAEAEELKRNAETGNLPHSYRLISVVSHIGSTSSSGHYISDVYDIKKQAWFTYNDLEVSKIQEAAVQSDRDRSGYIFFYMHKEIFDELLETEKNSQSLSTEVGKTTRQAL
Experiment: co-IP; mCherry immunoprecipitation with RFP-trap magnetic beads from lysates of transfected HEK293T cells, then immunoblotting; IP buffer 20 mM Tris-HCl pH 7.5, 150 mM NaCl, 2 mM MgCl2, 10% glycerol, 0.5% NP40, with benzonase; 2 h at 4 °C; n = 3

binding: binds
B1: CDC45 (protein, UniProt O75419 1-566)
chain: MFVSDFRKEFYEVVQSQRVLLFVASDVDALCACKILQALFQCDHVQYTLVPVSGWQELETAFLEHKEQFHYFILINCGANVDLLDILQPDEDTIFFVCDTHRPVNVVNVYNDTQIKLLIKQDDDLEVPAYEDIFRDEEEDEEHSGNDSDGSEPSEKRTRLEEEIVEQTMRRRQRREWEARRRDILFDYEQYEYHGTSSAMVMFELAWMLSKDLNDMLWWAIVGLTDQWVQDKITQMKYVTDVGVLQRHVSRHNHRNEDEENTLSVDCTRISFEYDLRLVLYQHWSLHDSLCNTSYTAARFKLWSVHGQKRLQEFLADMGLPLKQVKQKFQAMDISLKENLREMIEESANKFGMKDMRVQTFSIHFGFKHKFLASDVVFATMSLMESPEKDGSGTDHFIQALDSLSRSNLDKLYHGLELAKKQLRATQQTIASCLCTNLVISQGPFLYCSLMEGTPDVMLFSRPASLSLLSKHLLKSFVCSTKNRRCKLLPLVMAAPLSMEHGTVTVVGIPPETDSSDRKNFFGRAFEKAAESTSSRMLHNHFDLSVIELKAEDRSKFLDALISLLS
